# From PubChem BioAssay AID504834 (National Center for Advancing Translational Sciences (NCATS), 2011)
# Screen size: about 320,000 compounds; about 22,000 (6.9%) were called active. Inconclusive means that the source gave no clear call. Such entries were picked first, then a sample of the others. Calls follow the shape of the dose curve; as a rule, active = well fitted inhibition curve with a large enough effect; inconclusive = small, poorly fitted or top-dose-only effect, or another doubt; inactive = no such curve, though single readings can be large or run the other way. Where the call is inconclusive, the potency comes from a doubtful curve fit.
# Experiment: Primary qHTS for delayed death inhibitors of the malarial parasite plastid, 96 hour incubation
# Conditions: P. falciparum luciferase reporter growth; series mostly up to 28.7 µM; activity change, negative = inhibition: at the top concentration
# How it was run: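 Luminescence readout: decreased luciferase signal marks inhibited growth of reporter-expressing P. falciparum in infected red cells (2% hematocrit, 0.05% parasitemia final), exposed to compound two generations (96 h, 37 C, 5% CO2).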
# % is scaled to controls: 0 for no effect and ±100 for the full control effect; potency is read from the fitted curve at half-maximal effect.
SMILES,Potency,"activity change, negative = inhibition"
O=C(NNC(=O)c1ccc2ccccc2n1)c1ccc(O)cc1,"inconclusive: 18.5 µM [inhibitor, single point]",
COc1ccc(CN2C(=O)C(Cc3ccccc3)Nc3ncnc(N4CCN(c5ccccc5)CC4)c32)cc1 (configuration not stated),active: 6.57 µM,
N/C(=N\c1nc2ccccc2o1)NC(=O)c1ccccc1,,inactive: 62.5%
Cc1nc(CS(=O)(=O)c2ccccc2)cc(Sc2ccc(Cl)cc2)n1,"inconclusive: 8.28 µM [inhibitor, partial curve, poor fit]",
O=C(Nc1cccc(S(=O)(=O)Nc2ccc(Cl)cc2)c1)c1ccc(Cl)nc1,"inconclusive: 16.5 µM [inhibitor, partial curve, poor fit]",
O=C(CCS(=O)(=O)c1ccc(Cl)cc1)Oc1ccc2c(c1)OCO2,"inconclusive: 18.5 µM [inhibitor, single point]",
Cc1cc(C(F)F)n2nc(C(=O)Nc3sc4c(c3C#N)CCC(C)C4)nc2n1 (configuration not stated),,inactive: -57.5%
CNC(=O)/C(C#N)=C/c1c(N2CCN(C)CC2)nc2c(C)cccn2c1=O,,inactive: -0.776%
NS(=O)(=O)c1ccc2c(c1)C1C=CCC1C(C1CC=CCC1)N2 (configuration not stated),"inconclusive: 9.28 µM [inhibitor, partial curve, poor fit]",
Cc1cccc(C(=O)N/C(=C/c2ccco2)C(=O)N2CCCCCC2)c1,"inconclusive: 16.5 µM [inhibitor, single point]",
CCOC(=O)CC1C(=O)NCCN1c1nc2c(C)cccn2c(=O)c1/C=C1\SC(=S)N(C(C)CC)C1=O (configuration not stated),"inconclusive: 2.33 µM [inhibitor, full curve]",
N#CCCn1cc(C(=O)Nc2cccc(C(=O)O)c2)c(-c2ccc(Cl)cc2)n1,"inconclusive: 11.7 µM [inhibitor, single point]",
N#CCCN1CCN(S(=O)(=O)c2ccc(S(=O)(=O)N3CCCC3)cc2)CC1,,inactive: 13.4%
N#CCCN(C(=O)COC(=O)c1cc(S(=O)(=O)N2CCOCC2)ccc1Cl)c1ccc(F)cc1,,inactive: 2.24%
COc1ccc(Cl)cc1N(CC(=O)NC1CC2CCC1C2)S(=O)(=O)c1ccccc1 (configuration not stated),"inconclusive: 4.15 µM [inhibitor, full curve, poor fit]",
Cn1c(SCC(=O)NCC2CCCO2)ncc(C(=O)Nc2ccc(Cl)cc2)c1=O (configuration not stated),,inactive: 47.4%
Cc1ccc(/C=C/c2onc(C)c2S(=O)(=O)N2CCC(C(=O)N3CCCCC3)CC2)cc1,,inactive: -13.1%
COc1ccc(C(=O)Nc2cccc(C(=O)N3CCCCC3)c2)cc1,"inconclusive: 2.08 µM [inhibitor, partial curve, poor fit]",
O=C(CCn1c(=O)oc2ccccc21)NCCCN1CCOCC1,"inconclusive: 5.22 µM [inhibitor, partial curve]",
O=S1(=O)N=C(N/N=C/C=C/c2ccccc2)c2ccccc21,active: 13.1 µM,
COc1ccc([C@]23Cc4cc(OC)c(OC)cc4C(O2)C2=C(CCCC2=O)O3)cc1,"inconclusive: 2.13 µM [inhibitor, single point]",
Oc1ccccc1-n1c(-c2ccccc2)ccc1-c1ccccc1,active: 5.86 µM,
N=C1C(c2nc3ccccc3s2)=C(O)CN1NC(=O)c1ccco1,,inactive: 55.1%
Cc1cc(NS(=O)(=O)c2ccc(NC(=O)Nc3ccccc3)cc2)no1,"inconclusive: 9.28 µM [inhibitor, partial curve, poor fit]",

SMILES,Potency,"activity change, negative = inhibition"
COCCCNC(=S)NNC(=O)c1ccoc1C,"inconclusive: 18.5 µM [inhibitor, single point]",
CCOC(=O)C1=C(c2ccccc2)N2CCS(=O)(=O)N=C2S1,active: 10.4 µM,
CCC(=O)N1CCc2cc(S(=O)(=O)CCC(=O)NCc3cccc(OC)c3)ccc21,,inactive: 5.79%
C=CCc1cc(C)ccc1OCCn1ccnc1,"inconclusive: 10.4 µM [inhibitor, partial curve, poor fit]",
CCOC(=O)c1c(N)sc(=S)c2c1CCC2,,inactive: -0.28%
CCOC(=O)c1cnc2ccc(OCC)cc2c1N(C)Cc1ccccc1,"inconclusive: 13.1 µM [inhibitor, single point]",
CCOc1ccc(NC(=O)CCS(=O)(=O)c2ccc(Br)cc2)cc1,,inactive: 36.1%
COc1ccc(CCNC(=O)C2CCN(S(=O)(=O)c3ccc(C)cc3)CC2)cc1,"inconclusive: 13.1 µM [inhibitor, single point]",
CC(Oc1ccc(F)cc1)C(=O)Nc1cc(S(=O)(=O)N2CCOCC2)ccc1N1CCN(C)CC1 (configuration not stated),,inactive: -13.2%
CC(=O)Nc1ccc(NC(=O)CSc2nncn2C)cc1,"inconclusive: 9.28 µM [inhibitor, partial curve, poor fit]",
Cc1ccc(Sc2ccc(N)cn2)cc1,,inactive: 20%
O=C(NCc1ccc(F)cc1)C(Cc1ccccc1)n1cccc1 (configuration not stated),,inactive: -17.1%
CCc1ccc(NC(=O)Cn2c(=O)n(CCCC(=O)NCc3ccco3)c(=O)c3ccccc32)cc1,,inactive: 1.16%
Cc1cccc(CCNC(=O)C2CCC(CNS(=O)(=O)c3cccs3)CC2)c1 (configuration not stated),"inconclusive: 1.85 µM [inhibitor, full curve, poor fit]",
N=C(N)Cc1ccccc1Sc1ccccc1,,inactive: 2.52%
NC(=O)NC(=O)COC(=O)c1cccc(NS(=O)(=O)/C=C/c2ccccc2)c1,,inactive: 6.34%
CCc1cccc(NC(=O)CCCn2c(=O)[nH]c3ccsc3c2=O)c1,active: 2.94 µM,
CC(C)[C@H](NC(=O)c1ccccc1Cl)C(=O)NC1CCCCCC1,,inactive: -6.74%
CCCc1nc2oc3c(=O)[nH]cnc3c2c2c1COC(C)(C)C2,"inconclusive: 10.4 µM [inhibitor, partial curve, poor fit]",
CC1CC(C)CN(CCCNC(=O)C2CCN(c3nnc(-n4cccc4)s3)CC2)C1 (configuration not stated),"inconclusive: 4.15 µM [inhibitor, single point]",
COc1ccc(C(=O)Nc2ccc(S(=O)(=O)N3CCCC3)cc2)cc1[N+](=O)[O-],"inconclusive: 9.28 µM [inhibitor, single point]",
COc1ccc(Cl)cc1C(=O)NNC(=O)c1ccncc1,"inconclusive: 18.5 µM [inhibitor, single point]",
COCCN1C=C2C(=O)C(C)(OC(=O)CCC(=O)OC)C(=O)C=C2C=C1C1CC1 (configuration not stated),"inconclusive: 18.5 µM [inhibitor, single point]",

# An excerpt of these results, bar-delimited:
SMILES | Potency | activity change, negative = inhibition
Cc1cc(NS(=O)(=O)c2ccc(NC(=O)Nc3ccccc3)cc2)no1 | inconclusive: 9.28 µM [inhibitor, partial curve, poor fit] | 
COCCCNC(=S)NNC(=O)c1ccoc1C | inconclusive: 18.5 µM [inhibitor, single point] | 
CCOC(=O)C1=C(c2ccccc2)N2CCS(=O)(=O)N=C2S1 | active: 10.4 µM | 
CCC(=O)N1CCc2cc(S(=O)(=O)CCC(=O)NCc3cccc(OC)c3)ccc21 |  | inactive: 5.79%
C=CCc1cc(C)ccc1OCCn1ccnc1 | inconclusive: 10.4 µM [inhibitor, partial curve, poor fit] | 
CCOC(=O)c1c(N)sc(=S)c2c1CCC2 |  | inactive: -0.28%
CCOC(=O)c1cnc2ccc(OCC)cc2c1N(C)Cc1ccccc1 | inconclusive: 13.1 µM [inhibitor, single point] | 
CCOc1ccc(NC(=O)CCS(=O)(=O)c2ccc(Br)cc2)cc1 |  | inactive: 36.1%
COc1ccc(CCNC(=O)C2CCN(S(=O)(=O)c3ccc(C)cc3)CC2)cc1 | inconclusive: 13.1 µM [inhibitor, single point] | 
CC(Oc1ccc(F)cc1)C(=O)Nc1cc(S(=O)(=O)N2CCOCC2)ccc1N1CCN(C)CC1 (configuration not stated) |  | inactive: -13.2%
